Data as given in PubChem BioAssay AID504791 (Drosophila RNAi Screening Center, 2011).

Assay: 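Genes of the fly required for silencing by miRNA, siRNA or endo-siRNA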 (primary screen)
Cell system: Drosophila S2-derived reporter cells
Reagents: long dsRNA against Drosophila genes, about 150-250 ng dsRNA per well (siRNA assay); about 80-120 ng (miRNA assay)
Duration: about 5 days (siRNA assay); about 4 days (miRNA assay)
Treatment: copper sulfate induction of reporters: 25 µM (siRNA assay); 200 mM stated (miRNA assay), 1-2 days before reading
Measured: 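Per-well ratio of Renilla over firefly light, expressed relative to that plate's average ratio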
Direction: siRNA reporter hit score: higher = 3 marks a strong hit with raised ratio; -3 a strong hit with lowered ratio
Units: stable assay Renilla, run 1 in luminescence; stable assay firefly, run 1 in luminescence
Hit rule: 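a well was a first-pass pick when its plate-scaled ratio rose above 1.5 (siRNA assay) or 1.6 (miRNA assay), or dropped below 0.6; a gene counted only if two separate dsRNAs agreed on retest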
The screen tested about 23,000 reagents; this is a random part of those with a known target gene and a result. Over the whole deposit, 199 (0.86%) were called active. 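Plate-scaled ratios behind the calls are not deposited; printed light signals are raw; many rows marked increased or decreased are still called inactive.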 Names joined by + are all predicted targets of the reagent.

Odc2 [DRSC07483] — stable assay Renilla, run 1: 6055; stable assay firefly, run 1: 4.16e5; activity call: inactive
Eig71Ek [DRSC11158] — stable assay Renilla, run 1: 9184; stable assay firefly, run 1: 3.97e5; activity call: inactive
Obp73a [DRSC09907] — stable assay Renilla, run 1: 7234; stable assay firefly, run 1: 3.41e5; activity call: inactive
CG9673 [DRSC20202] — stable assay Renilla, run 1: 5619; stable assay firefly, run 1: 5.28e5; activity call: inactive
LysX [DRSC08678] — stable assay Renilla, run 1: 6319; stable assay firefly, run 1: 4.16e5; activity call: inactive
CG33331 + CG33332 [DRSC22928] — stable assay Renilla, run 1: 4344; stable assay firefly, run 1: 3.59e5; activity call: inactive
CG33331 + CG33332 [DRSC29492] — miRNA reporter change: reporter ratio lowered past the hit cutoff; activity call: inactive
CG32588 [DRSC22285] — stable assay Renilla, run 1: 8693; stable assay firefly, run 1: 6.23e5; activity call: inactive
CG11686 [DRSC14350] — stable assay Renilla, run 1: 6354; stable assay firefly, run 1: 3.74e5; activity call: inactive
CG6034 [DRSC10572] — stable assay Renilla, run 1: 7748; stable assay firefly, run 1: 4.79e5; activity call: inactive
ZnT77C [DRSC11766] — stable assay Renilla, run 1: 7495; stable assay firefly, run 1: 3.96e5; activity call: inactive
ZnT77C [DRSC11767] — stable assay Renilla, run 1: 7744; stable assay firefly, run 1: 3.69e5; activity call: inactive
CG30016 [DRSC05242] — stable assay Renilla, run 1: 4535; stable assay firefly, run 1: 3.17e5; activity call: inactive

An excerpt from above, showing only “stable assay firefly, run 1”.
CG11686 [DRSC14350]: 3.74e5
CG6034 [DRSC10572]: 4.79e5
ZnT77C [DRSC11766]: 3.96e5
ZnT77C [DRSC11767]: 3.69e5

More records follow.
Prx3 [DRSC15883] — stable assay Renilla, run 1: 6520; stable assay firefly, run 1: 2.81e5; activity call: inactive
salm [DRSC03606] — stable assay Renilla, run 1: 7278; stable assay firefly, run 1: 4.05e5; activity call: inactive
rtp [DRSC12132] — stable assay Renilla, run 1: 9015; stable assay firefly, run 1: 6.16e5; activity call: inactive
Mco3 [DRSC15926] — stable assay Renilla, run 1: 7348; stable assay firefly, run 1: 4.41e5; activity call: inactive
IntS14 [DRSC00668] — siRNA reporter hit score: -3; stable siRNA reporter change: reporter ratio raised past the hit cutoff; miRNA reporter change: reporter ratio raised past the hit cutoff; stable assay Renilla, run 1: 37590; stable assay firefly, run 1: 2.26e5; activity call: active
Echs1 [DRSC06999] — stable assay Renilla, run 1: 7082; stable assay firefly, run 1: 4.84e5; activity call: inactive
CG14787 [DRSC18606] — stable assay Renilla, run 1: 7575; stable assay firefly, run 1: 4.01e5; activity call: inactive
geko [DRSC10044] — stable assay Renilla, run 1: 7771; stable assay firefly, run 1: 3.41e5; activity call: inactive
geko [DRSC10045] — stable assay Renilla, run 1: 6360; stable assay firefly, run 1: 3.31e5; activity call: inactive
Kaz-m1 [DRSC16990] — stable assay Renilla, run 1: 6856; stable assay firefly, run 1: 3.65e5; activity call: inactive
Or74a [DRSC11245] — stable assay Renilla, run 1: 7592; stable assay firefly, run 1: 4.17e5; activity call: inactive
E2f1 [DRSC16655] — stable siRNA reporter change: reporter ratio lowered past the hit cutoff; stable assay Renilla, run 1: 5588; stable assay firefly, run 1: 4.70e5; activity call: inactive
unc-13-4A [DRSC10201] — stable assay Renilla, run 1: 5887; stable assay firefly, run 1: 3.63e5; activity call: inactive
unc-13-4A [DRSC10202] — stable assay Renilla, run 1: 6195; stable assay firefly, run 1: 3.72e5; activity call: inactive
unc-13-4A [DRSC10203] — stable assay Renilla, run 1: 4604; stable assay firefly, run 1: 2.28e5; activity call: inactive
unc-13-4A [DRSC11013] — stable assay Renilla, run 1: 5411; stable assay firefly, run 1: 3.72e5; activity call: inactive
